# From EP2323645B1, “USE OF LOW-DOSE LOCAL ANAESTHETIC OR DERIVATIVES THEREOF FOR THERAPY OF CHRONIC PAIN, ESPECIALLY MIGRAINE” (priority 2008, dated 2010)
# Test system: Menstruationsbeschwerden (Menorrhagien)
# Conditions: deep bilateral paravertebral injections L2, 0,1 Gew.-%
smiles,measurement,value
CCN(CC)CC(=O)Nc1c(C)cccc1C [Lidocain],Remission der Unterbauchschmerzen und -beschwerden,Spontane Remission
